# Laboratory results taken from PMC10163288.
# The list shows a part of the results.
# B1: il2ra_site2_3nfp_sap_21_mot_HHH_b1_04032_000000208_0001_43_56_H_._HHH_b1_03418_0001_0000100007_0000001_0_0001_af2pred_0001_af2pred_1_swapped (protein)
# chain: SSSSSEAEEELERLLRELEELLKRDPEEARKLSEEASKLAREANDEEIFLLLLEIYRRLQSSSSS
# B2: il2ra_site1_2b5i_sap_15_mot_HHH_b1_01540_000000292_0001_42_56_H_._HHH_b2_03309_0001_0000600018_0000001_1_0001_af2pred_dldesign_0_af2pred (protein)
# chain: SSSSDPYDRIYDLYKEILKLIKQHKYEEASKLLKEALALAEALGDEKLVAELKWLEEHFKSSSSS
# B3: il2ra_site1_3nfp_normal_mot_ems_3hC_836_0002_000000087_0001_24_40_H_._HHH_b1_02452_0001_0000300040_0000001_0_af2pred_0001_af2pred (protein)
# chain: SSSSSDVKREAWRLLEEALKALLNGNPEEARKLLEEALELAEEAGSELLEKMIREAEEVLSSSSS
# B4: il2ra_site2_3nfp_normal_mot_HHH_b2_00102_000000046_0001_18_35_H_._HHH_b1_05569_0001_0000600042_0000001_0_af2pred_0001_af2pred (protein)
# chain: SSSSSSDLADEARKALRIAWERGDLRTAARLFLLSRKVTEEGDPELEEELEELIRELLSSSSSSS
# B5: il2ra_site2_3nfp_sap_21_mot_HHH_b1_00660_af2_000000199_0001_40_57_H_._HHH_b2_02243_0001_0000400028_0000001_0_0001 (protein)
# chain: SSSSDKAEEYARIALELAKRALEDGDPESAKRILETALLAARDQGDPELQEEIERLLEEISSSSS
# B6: il2ra_site1_3nfp_normal_mot_HHH_b1_01788_af2_000000237_0001_41_55_H_._HHH_b2_06615_0001_0000500018_0000001_0 (protein)
# chain: SSSSSDKEVWRRVSELLHRAAKVSEEETEQLLREAKELAEEANDPSVKRAVEFYERILRRSSSSS
# B7: il2ra_site1_3nfp_normal_mot_HHH_b2_08194_000000107_0001_25_41_H_._HHH_b2_00712_0001_0000300009_0000001_0_af2pred_0001_af2pred_1 (protein)
# chain: SSSSSDQEELEELAEEAKELAKEIEDEKNRRFLEEVAEALERSGNPRYFKSLEIALRLAESSSSS
# B8: il2ra_site2_3nfp_normal_mot_HHH_b1_04781_af2_000000057_0001_1_18_H_._HHH_b1_08047_af2_0001_0000100001_0000001_0 (protein)
# chain: SSSSDEEQERVIELAIESLEALGNEELAEEARELLEEFREKGDPRVLLEVYKLLREAYHLSSSSS
# B9: il2ra_site2_2erj_sap_18_mot_HHH_b2_02558_af2_000000162_0001_1_21_H_._22aa8d8ad8dce7f663ea8fa348a52261_0001_0001_0000100003_0000001_0_0001 (protein)
# chain: SSSSDEESEEIREEIEELFREARERNDLHLLYEIAVRVMHLAHRLNDPELHRLTRKIAEEASSSS
# B10: il2ra_site1_3nfp_normal_mot_HHH_b1_08527_000000299_0001_1_18_H_._HHH_b1_00781_0001_0000300028_0000001_1 (protein)
# chain: SSSSDKEELLQEFQKIAFELSRLGDTQAFRLVAELAEEADKEGDPRYLEEAEEILEEVRRSSSSS
# Molecular target: il2ra, P01589
# Assay: yeast display titration
row,Binder,apparent Kd
1,B1,inactive: no binding seen
2,B2,inactive: no binding seen
3,B3,inactive: no binding seen
4,B4,inactive: no binding seen
5,B5,inactive: no binding seen
6,B6,inactive: no binding seen
7,B7,inactive: no binding seen
8,B8,inactive: no binding seen
9,B9,inactive: no binding seen
10,B10,inactive: no binding seen
